# From the supplement of paper PMC4635364
# Counter-ions that a name gives are not always drawn. Some of the results follow. Single values are uncertain here, since repeats match poorly.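 Cells: ReNCell VM human fetal ventral-midbrain neural progenitors, differentiated mitogen-free. Blinded raters compared doublecortin-stained (early neurons) or tyrosine hydroxylase-stained (dopaminergic neurons) images with untreated wells, where 0 means no change. After repeats and both raters were averaged, compounds scoring 2 or above became hits for retesting.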
# Key:
# ReNCell VM [1] = experiment: neuronal differentiation score (DCX+ cell fraction vs untreated, manual image score) (score (-3 to 3)); higher = more neuronal differentiation; conditions: 2 uM, 2 weeks
# ReNCell VM [2] = experiment: dopaminergic neuron differentiation score (TH+ cell fraction vs untreated, manual image score) (score (0 to 3)); higher = more TH+ dopaminergic neuron differentiation; conditions: 2 uM, 4 weeks, BDNF 10 ng/ml + GDNF 10 ng/ml
smiles,measurement,setting,value
Cc1ccc2c(Cl)cc(Cl)c(O)c2n1,neuronal differentiation score,ReNCell VM [1]; library: Spectrum,inactive: 0
same,dopaminergic neuron differentiation score,ReNCell VM [2]; library: Spectrum,inactive: 0
CCOc1ccccc1OCC1CNCCO1 (stereo not drawn) [Viloxazine hydrochloride],neuronal differentiation score,ReNCell VM [1]; library: Prestwick,inactive: 0
same,dopaminergic neuron differentiation score,ReNCell VM [2]; library: Prestwick,inactive: 0
NCCc1ccc(O)c(O)c1,neuronal differentiation score,ReNCell VM [1]; library: Spectrum,inactive: 0
same,dopaminergic neuron differentiation score,ReNCell VM [2]; library: Spectrum,inactive: 0
Cc1nc2c(c(=O)[nH]1)CSCC2,neuronal differentiation score,ReNCell VM [1]; library: Tocriscreen,inactive: 0
same,dopaminergic neuron differentiation score,ReNCell VM [2]; library: Tocriscreen,inactive: 0
O=Cc1ccccc1O[C@@H]1O[C@H](CO)[C@@H](O)[C@H](O)[C@H]1O,neuronal differentiation score,ReNCell VM [1]; library: Spectrum,inactive: 0
same,dopaminergic neuron differentiation score,ReNCell VM [2]; library: Spectrum,inactive: 0
C=CC(C)(O)CCC1C(=C)CC(OC(C)=O)C2C(C)(C)CCCC12C (stereo not drawn),neuronal differentiation score,ReNCell VM [1]; library: Spectrum,inactive: 0
same,dopaminergic neuron differentiation score,ReNCell VM [2]; library: Spectrum,inactive: 0
O=C1N(c2ccccc2)c2ccccc2C1(Cc1ccncc1)Cc1ccncc1 [Linopirdine],neuronal differentiation score,ReNCell VM [1]; library: LOPAC,inactive: 0
same,dopaminergic neuron differentiation score,ReNCell VM [2]; library: LOPAC,inactive: 0
CC(C)c1c(O)c(-c2cc3c(c(C(C)C)c2O)CCC2C(C)(C)CCC[C@]32C)cc2c1CCC1C(C)(C)CCC[C@]21C (stereo partly drawn),neuronal differentiation score,ReNCell VM [1]; library: Spectrum,inactive: 0
same,dopaminergic neuron differentiation score,ReNCell VM [2]; library: Spectrum,inactive: 0
O=c1c(O)c(-c2ccc(O)c(O)c2)oc2cc(O)cc(O)c12 [Quercetin dihydrate],neuronal differentiation score,ReNCell VM [1]; library: LOPAC,inactive: 0
same,dopaminergic neuron differentiation score,ReNCell VM [2]; library: LOPAC,inactive: 0
CCCCCCCCCCCC1=C(O)C(=O)C=C(O)C1=O [Embelin],neuronal differentiation score,ReNCell VM [1]; library: Tocriscreen,inactive: 0
same,dopaminergic neuron differentiation score,ReNCell VM [2]; library: Tocriscreen,inactive: 0
Oc1cccc2[nH]ccc12,neuronal differentiation score,ReNCell VM [1]; library: Spectrum,inactive: 0
same,dopaminergic neuron differentiation score,ReNCell VM [2]; library: Spectrum,inactive: 0
C[C@H](N)[C@H](O)c1cccc(O)c1,neuronal differentiation score,ReNCell VM [1]; library: Spectrum,inactive: 0
same,dopaminergic neuron differentiation score,ReNCell VM [2]; library: Spectrum,inactive: 0
CC(=O)N1CCCC1C(=O)O (stereo not drawn),neuronal differentiation score,ReNCell VM [1]; library: Spectrum,inactive: 0
same,dopaminergic neuron differentiation score,ReNCell VM [2]; library: Spectrum,inactive: 0
"Cc1ccc(OCC(O)C(C)NC(C)C)c2c1CCC2 (stereo not drawn) [ICI-118,551 hydrochloride]",neuronal differentiation score,ReNCell VM [1]; library: Tocriscreen,inactive: 0
same,dopaminergic neuron differentiation score,ReNCell VM [2]; library: Tocriscreen,inactive: 0

# Pulled one by one from above (two):
smiles,measurement,setting,value
CC(=O)N1CCCC1C(=O)O (stereo not drawn),dopaminergic neuron differentiation score,ReNCell VM [2]; library: Spectrum,inactive: 0
Cc1nc2c(c(=O)[nH]1)CSCC2,neuronal differentiation score,ReNCell VM [1]; library: Tocriscreen,inactive: 0
